Experimental data taken from PMC5105134.
These are yes or no findings as the source states them, for the method shown. In cells and extracts the contact can be indirect. Some entries that bind do so weakly or less than the wild type.

Sequences of proteins named here, by UniProt entry; tags and fusion partners are left off.
UniProt P68404: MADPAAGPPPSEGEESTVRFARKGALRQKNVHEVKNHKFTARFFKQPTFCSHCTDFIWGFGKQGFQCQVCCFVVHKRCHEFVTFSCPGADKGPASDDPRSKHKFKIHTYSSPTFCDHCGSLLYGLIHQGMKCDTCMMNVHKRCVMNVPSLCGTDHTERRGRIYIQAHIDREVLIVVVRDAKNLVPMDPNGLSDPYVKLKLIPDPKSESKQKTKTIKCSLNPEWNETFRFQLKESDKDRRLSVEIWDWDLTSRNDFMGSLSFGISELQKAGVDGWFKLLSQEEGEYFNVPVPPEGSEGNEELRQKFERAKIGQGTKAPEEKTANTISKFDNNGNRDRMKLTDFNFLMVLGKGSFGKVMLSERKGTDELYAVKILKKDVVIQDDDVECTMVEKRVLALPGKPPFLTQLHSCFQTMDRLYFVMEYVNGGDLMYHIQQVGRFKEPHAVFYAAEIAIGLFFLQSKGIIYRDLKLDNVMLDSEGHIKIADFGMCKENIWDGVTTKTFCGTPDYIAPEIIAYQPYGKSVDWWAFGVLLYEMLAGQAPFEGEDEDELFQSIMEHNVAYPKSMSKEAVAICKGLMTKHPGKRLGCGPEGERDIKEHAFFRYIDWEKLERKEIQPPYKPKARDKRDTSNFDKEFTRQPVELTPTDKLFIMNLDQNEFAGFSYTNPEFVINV

T1: endogenous TRPC3 of mouse heart (mouse (endogenous in mouse heart)) (UniProt Q9QZC1)
T1 sequence: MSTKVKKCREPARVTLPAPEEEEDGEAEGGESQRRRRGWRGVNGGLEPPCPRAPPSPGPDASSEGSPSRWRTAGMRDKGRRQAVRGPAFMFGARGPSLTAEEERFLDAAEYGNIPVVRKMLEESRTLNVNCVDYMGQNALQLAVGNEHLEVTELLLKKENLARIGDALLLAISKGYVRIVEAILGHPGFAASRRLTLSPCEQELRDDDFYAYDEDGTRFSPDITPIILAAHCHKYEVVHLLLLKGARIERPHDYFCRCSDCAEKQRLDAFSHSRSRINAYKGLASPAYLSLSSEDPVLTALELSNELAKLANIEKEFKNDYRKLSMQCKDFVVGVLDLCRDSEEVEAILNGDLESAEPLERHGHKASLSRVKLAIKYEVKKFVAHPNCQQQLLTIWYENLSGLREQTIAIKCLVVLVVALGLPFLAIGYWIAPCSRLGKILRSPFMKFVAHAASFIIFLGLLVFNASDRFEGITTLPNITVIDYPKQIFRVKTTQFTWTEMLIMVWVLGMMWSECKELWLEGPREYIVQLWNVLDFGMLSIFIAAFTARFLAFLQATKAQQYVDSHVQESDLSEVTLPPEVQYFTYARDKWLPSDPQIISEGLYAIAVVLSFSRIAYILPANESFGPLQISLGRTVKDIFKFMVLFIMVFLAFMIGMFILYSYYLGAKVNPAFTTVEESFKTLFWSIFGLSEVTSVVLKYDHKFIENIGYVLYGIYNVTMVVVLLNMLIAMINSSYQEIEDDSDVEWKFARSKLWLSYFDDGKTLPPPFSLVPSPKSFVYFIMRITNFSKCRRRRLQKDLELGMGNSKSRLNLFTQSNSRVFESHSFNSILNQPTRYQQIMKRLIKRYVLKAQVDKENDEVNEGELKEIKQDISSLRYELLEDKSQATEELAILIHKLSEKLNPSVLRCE

B1: endogenous Nox2 of mouse heart (enzyme, UniProt Q61093 1-570)
chain: MGNWAVNEGLSIFVILVWLGLNVFLFINYYKVYDDGPKYNYTRKLLGSALALARAPAACLNFNCMLILLPVCRNLLSFLRGSSACCSTRIRRQLDRNLTFHKMVAWMIALHTAIHTIAHLFNVEWCVNARVGISDRYSIALSDIGDNENEEYLNFAREKIKNPEGGLYVAVTRLAGITGIVITLCLILIITSSTKTIRRSYFEVFWYTHHLFVIFFIGLAIHGAERIVRGQTAESLEEHNLDICADKIEEWGKIKECPVPKFAGNPPMTWKWIVGPMFLYLCERLVRFWRSQQKVVITKVVTHPFKTIELQMKKKGFKMEVGQYIFVKCPKVSKLEWHPFTLTSAPEEDFFSIHIRIVGDWTEGLFNACGCDKQEFQDAWKLPKIAVDGPFGTASEDVFSYEVVMLVGAGIGVTPFASILKSVWYKYCDNATSLKLKKIYFYWLCRDTHAFEWFADLLQLLETQMQERNNANFLSYNIYLTGWDESQANHFAVHHDEEKDVITGLKQKTLYGRPNWDNEFKTIASEHPNTTIGVFLCGPEALAETLSKQSISNSESGPRGVHFIFNKENF
B2: endogenous p22phox of mouse heart (protein, UniProt Q61462 1-192)
chain: MGQIEWAMWANEQALASGLILITGGIVATAGRFTQWYFGAYSIAAGVLICLLEYPRGKRKKGSTMERCGQKYLTSVVKLFGPLTRNYYVRAALHFLLSVPAGFLLATILGTVCLAIASVIYLLAAIRGEQWTPIEPKPKERPQVGGTIKQPPTNPPPRPPAEVRKKPSEGEEEAASAGGPQVNPMPVTDEVV

Biological target: T1, endogenous TRPC3 of mouse heart (mouse (endogenous in mouse heart))
Assay: co-IP; endogenous proteins in mouse heart lysates, sham or 1 week after TAC operation; precipitating antibody not stated

binding, binds:
endogenous protein kinase C (PKC) beta of mouse heart (from UniProt P68404 1-671) (enzyme)
B1
B2
